Laboratory results published in patent publication US20100297703A1.
Results are given in words; binding and its absence hold for the method and conditions named.

Tests used:
[1] = molecular target: mutant CwlF-3×FLAG protein having no active domain (Bacillus subtilis); test: anti-FLAG purification of cell surface extract of the WE13xLysM3FL strain, SDS-PAGE
[2] = molecular target: mutant CwlE-3×FLAG protein having no active domain (Bacillus subtilis); test: anti-FLAG purification of cell surface extract of the WE15xLysM3FL strain, SDS-PAGE (protein from cells of OD600=2,000 loaded)

B1: YoeB protein (protein)
chain: KNTSGDLSQKQALQLALSAREHFWNTMSGHNPKVKKAVCPSGTFEYQNLQYVYMCSDLGTKAKAVNYLTPIFTKTAIEKGFKDYHFTVSKGKLAVPIGDGDNLLNWKKSTAKLISKKGSTITYEFTVPTLDGSPSAKRKVTFVKENKKWKVNQFDAVI
- binding [1]: no binding
- binding [2]: no binding
